PubChem BioAssay AID1224830, NIAID | 2016
The deposit covers about 18,000 reagents; shown is an unselected part. Of all reagents, about 2,900 (16%) got an active call. 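Calls are made per well; low scores hint the gene aids the LPS response, high scores that it dampens it.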 Repeated entries: four replicate wells of each siRNA pool.

Purpose: 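Host factors that control LPS-induced TNF expression in human macrophages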 (primary screen)
Cells: human THP-1 monocytic leukaemia cells, TNF dual-luciferase reporter clone, PMA-differentiated to macrophage-like cells
Reagents: siRNA pool against human genes, 50 nM
Timing: LPS for 4 h, given about 3 days after siRNA transfection
Conditions: bacterial LPS (TLR4 ligand), 10 ng/ml
Detection: 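TNF firefly reporter luminescence divided by renilla, normalised to the plate median, then turned into a robust z-score for each replicate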
Direction: TNF reporter robust z-score: higher = stronger TNF reporter response to LPS
Active means: 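a well is active when its z-score exceeds 2.8 or falls below -1.5; control wells carry no call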

ZNF224 gave TNF reporter robust z-score 0.16; inactive.
After knock-down of ZNF224, the screen gave TNF reporter robust z-score -0.34; inactive.
ZNF224 gave TNF reporter robust z-score -0.51; inactive.
Depletion of ZNF224 came out at: TNF reporter robust z-score -0.16; inactive.
CAPG showed TNF reporter robust z-score -0.01; inactive.
With knock-down of CAPG, the screen gave TNF reporter robust z-score -0.16; inactive.
With knock-down of CAPG, the screen gave TNF reporter robust z-score 1.28; inactive.
Depletion of CAPG resulted in: TNF reporter robust z-score 0.12; inactive.
For CFL1 the deposit lists TNF reporter robust z-score -0.82; inactive.
Silencing of CFL1 resulted in: TNF reporter robust z-score -1.36; inactive.
After knock-down of CFL1 the results were TNF reporter robust z-score -1.11; inactive.
Against CFL1, the values are TNF reporter robust z-score -1.26; inactive.
With knock-down of THAP1, the record shows inactive.
Against THAP1, the entry reads TNF reporter robust z-score -0.45; inactive.
Depletion of THAP1 came out at: TNF reporter robust z-score -0.03; inactive.
With knock-down of THAP1, the record shows TNF reporter robust z-score -0.25; inactive.
For THAP1 the deposit lists TNF reporter robust z-score -0.63; inactive.
Knock-down of KLF15 gave: TNF reporter robust z-score -0.69; inactive.
Against KLF15, the entry reads TNF reporter robust z-score -0.47; inactive.
For KLF15, the entry reads TNF reporter robust z-score -1.11; inactive.
KLF15 scored TNF reporter robust z-score -0.34; inactive.
After knock-down of LSM11, the record shows TNF reporter robust z-score 0.74; inactive.
LSM11 showed TNF reporter robust z-score 0.68; inactive.
Depletion of LSM11 came out at: TNF reporter robust z-score -0.3; inactive.
After knock-down of LSM11, the record shows TNF reporter robust z-score -1.23; inactive.
Silencing of OR52E6 resulted in: TNF reporter robust z-score 1.58; inactive.
Knock-down of OR52E6 gave: TNF reporter robust z-score -0.2; inactive.
Silencing of OR52E6 came out at: TNF reporter robust z-score 1.36; inactive.
With knock-down of OR52E6, the screen gave TNF reporter robust z-score 0.63; inactive.
For MUL1, the entry reads TNF reporter robust z-score 1.49; inactive.
After knock-down of MUL1 the results were TNF reporter robust z-score -0.17; inactive.
After knock-down of MUL1, the screen gave TNF reporter robust z-score 1.56; inactive.
Silencing of MUL1 came out at: TNF reporter robust z-score 2.75; inactive.
With knock-down of LOC400576 (retired record), the record shows TNF reporter robust z-score -0.21; inactive.
Against LOC400576 (retired record) the deposit lists TNF reporter robust z-score -0.13; inactive.
Depletion of LOC400576 (retired record) came out at: TNF reporter robust z-score -0.04; inactive.
Knock-down of LOC400576 (retired record) came out at: TNF reporter robust z-score 0.54; inactive.
Against MFSD6 the deposit lists TNF reporter robust z-score 1.37; inactive.
For MFSD6, the values are TNF reporter robust z-score 1.57; inactive.
MFSD6 scored TNF reporter robust z-score 0.81; inactive.
For MRNIP, the values are TNF reporter robust z-score 0.04; inactive.
With knock-down of MRNIP, the record shows TNF reporter robust z-score 0.16; inactive.
MRNIP showed TNF reporter robust z-score -0.75; inactive.
For MRNIP, the entry reads TNF reporter robust z-score -0.74; inactive.
Against STARD5, the values are TNF reporter robust z-score 1.93; inactive.
For STARD5 the deposit lists TNF reporter robust z-score 6.08; active.
STARD5 showed TNF reporter robust z-score 0.57; inactive.
After knock-down of STARD5, the screen gave TNF reporter robust z-score 0.97; inactive.
Silencing of VPS28 gave: TNF reporter robust z-score -0.13; inactive.
After knock-down of VPS28, the record shows TNF reporter robust z-score -0.32; inactive.
Depletion of VPS28 resulted in: TNF reporter robust z-score -0.43; inactive.
With knock-down of VPS28 the results were TNF reporter robust z-score -0.33; inactive.
GCDH showed TNF reporter robust z-score -0.17; inactive.
GCDH scored TNF reporter robust z-score 0.27; inactive.
With knock-down of GCDH, the record shows TNF reporter robust z-score -0.18; inactive.
Knock-down of GCDH came out at: TNF reporter robust z-score 2.07; inactive.
Silencing of RNF115 came out at: TNF reporter robust z-score 0.78; inactive.
RNF115 scored TNF reporter robust z-score -1.39; inactive.
RNF115 gave TNF reporter robust z-score -0.11; inactive.
RNF115 showed TNF reporter robust z-score 0.01; inactive.

Entries above marked active (1):
STARD5 | TNF reporter robust z-score: 6.08; activity call: active
